According to patent US20020110853A1:
No constants are given. Whether binding was seen depends on the method and setting. Some results given as binding are weak or reduced against the parent protein; the word gives no strength. Where a sequence is shown, tags or fusion partners need not be part of it.

The chains behind the UniProt entries cited, without tags or fusion partners. Residues count along the entry.
UniProt O43508, residues 94-249: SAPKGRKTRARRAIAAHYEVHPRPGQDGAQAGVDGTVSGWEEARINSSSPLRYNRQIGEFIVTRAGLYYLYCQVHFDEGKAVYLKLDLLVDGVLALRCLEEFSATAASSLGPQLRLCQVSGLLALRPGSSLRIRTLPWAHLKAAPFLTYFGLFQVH

Target: T1, TWEAKR-Flag-LeuZip2 (extracellular domain of human TWEAKR expressed in E. coli as a leucine zipper dimer fusion protein) (human) (UniProt Q9NP84)
T1 sequence: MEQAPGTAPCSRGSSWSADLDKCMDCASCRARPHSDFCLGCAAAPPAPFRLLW
Assay: ligand blot of E. coli lysate probed with TWEAK, visualized with an anti-TWEAK antibody

## TWEAK (probe of the ligand blot of Example 2) (from UniProt O43508 94-249)
  binding: binds
